Experimental data from publication PMC10954720.
Results are given in words; binding and its absence hold for the method and conditions named. For some assays here: Binding seen in cells or lysates may run through a third protein. Some results given as binding are weak or reduced against the parent protein; the word gives no strength. Values belong to the binder of their own block, whether it stands above or below them.

Tests used:
[1] = molecular target: T1, Rabenosyn-5 (human (endogenous in HeLa)) (UniProt Q9H1K0); test: co-IP; immunodepletion: HeLa cytosol fractions incubated with primary antibody against the respective PtdIns(3)P binding protein or control IgG overnight at 4 °C, antibody-protein complex removed with Protein A Sepharose; depleted cytosol immunoblotted (co-depletion)
T1 sequence: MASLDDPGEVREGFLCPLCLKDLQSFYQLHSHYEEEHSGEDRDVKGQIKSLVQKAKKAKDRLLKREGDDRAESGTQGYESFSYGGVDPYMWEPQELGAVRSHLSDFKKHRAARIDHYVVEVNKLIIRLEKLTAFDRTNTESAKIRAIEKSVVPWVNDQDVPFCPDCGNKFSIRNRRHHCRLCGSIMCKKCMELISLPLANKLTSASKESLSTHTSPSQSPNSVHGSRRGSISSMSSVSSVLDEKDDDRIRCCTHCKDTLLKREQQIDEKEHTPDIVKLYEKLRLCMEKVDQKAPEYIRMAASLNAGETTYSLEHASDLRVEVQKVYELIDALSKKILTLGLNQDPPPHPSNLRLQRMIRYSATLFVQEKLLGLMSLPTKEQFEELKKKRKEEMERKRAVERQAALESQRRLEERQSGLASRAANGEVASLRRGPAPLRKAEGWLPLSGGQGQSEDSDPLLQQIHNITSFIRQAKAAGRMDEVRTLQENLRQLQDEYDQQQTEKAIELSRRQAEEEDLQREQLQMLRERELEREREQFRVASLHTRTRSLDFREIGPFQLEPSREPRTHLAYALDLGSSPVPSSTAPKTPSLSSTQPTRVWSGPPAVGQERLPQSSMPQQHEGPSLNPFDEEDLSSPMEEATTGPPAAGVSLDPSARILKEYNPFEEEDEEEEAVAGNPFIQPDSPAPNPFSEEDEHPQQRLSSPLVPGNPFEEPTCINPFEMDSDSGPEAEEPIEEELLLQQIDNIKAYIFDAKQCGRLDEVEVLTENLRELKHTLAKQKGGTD

[2] = molecular target: T2, syntaxin 6 (Rattus norvegicus) (UniProt Q63635); test: recruitment to proteoliposomes; syntaxin 6 liposomes with or without 1% PtdIns(3)P; method told only in Supplementary Fig. 2e; only the target purified
T2 sequence: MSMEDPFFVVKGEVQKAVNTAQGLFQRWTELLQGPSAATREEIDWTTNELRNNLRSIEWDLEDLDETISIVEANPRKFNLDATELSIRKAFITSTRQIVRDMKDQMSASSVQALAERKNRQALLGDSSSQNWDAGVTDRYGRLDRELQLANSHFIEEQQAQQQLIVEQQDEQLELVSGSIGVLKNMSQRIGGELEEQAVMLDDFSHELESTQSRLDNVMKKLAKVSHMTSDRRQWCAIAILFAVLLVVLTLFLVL

- binding [1]: binds
B1: VPS45 (protein, UniProt Q9NRW7 1-570)
chain: MNVVFAVKQYISKMIEDSGPGMKVLLMDKETTGIVSMVYTQSEILQKEVYLFERIDSQNREIMKHLKAICFLRPTKENVDYIIQELRRPKYTIYFIYFSNVISKSDVKSLAEADEQEVVAEVQEFYGDYIAVNPHLFSLNILGCCQGRNWDPAQLSRTTQGLTALLLSLKKCPMIRYQLSSEAAKRLAECVKQVITKEYELFEFRRTEVPPLLLILDRCDDAITPLLNQWTYQAMVHELLGINNNRIDLSRVPGISKDLREVVLSAENDEFYANNMYLNFAEIGSNIKNLMEDFQKKKPKEQQKLESIADMKAFVENYPQFKKMSGTVSKHVTVVGELSRLVSERNLLEVSEVEQELACQNDHSSALQNIKRLLQNPKVTEFDAARLVMLYALHYERHSSNSLPGLMMDLRNKGVSEKYRKLVSAVVEYGGKRVRGSDLFSPKDAVAITKQFLKGLKGVENVYTQHQPFLHETLDHLIKGRLKENLYPYLGPSTLRDRPQDIIVFVIGGATYEEALTVYNLNRTTPGVRIVLGGTTVHNTKSFLEEVLASGLHSRSKESSQVTSRSASRR

- binding [2]: binds
B2: Vps51 (protein, UniProt Q9UID3 1-782)
chain: MAAAAAAGPSPGSGPGDSPEGPEGEAPERRRKAHGMLKLYYGLSEGEAAGRPAGPDPLDPTDLNGAHFDPEVYLDKLRRECPLAQLMDSETDMVRQIRALDSDMQTLVYENYNKFISATDTIRKMKNDFRKMEDEMDRLATNMAVITDFSARISATLQDRHERITKLAGVHALLRKLQFLFELPSRLTKCVELGAYGQAVRYQGRAQAVLQQYQHLPSFRAIQDDCQVITARLAQQLRQRFREGGSGAPEQAECVELLLALGEPAEELCEEFLAHARGRLEKELRNLEAELGPSPPAPDVLEFTDHGGSGFVGGLCQVAAAYQELFAAQGPAGAEKLAAFARQLGSRYFALVERRLAQEQGGGDNSLLVRALDRFHRRLRAPGALLAAAGLADAATEIVERVARERLGHHLQGLRAAFLGCLTDVRQALAAPRVAGKEGPGLAELLANVASSILSHIKASLAAVHLFTAKEVSFSNKPYFRGEFCSQGVREGLIVGFVHSMCQTAQSFCDSPGEKGGATPPALLLLLSRLCLDYETATISYILTLTDEQFLVQDQFPVTPVSTLCAEARETARRLLTHYVKVQGLVISQMLRKSVETRDWLSTLEPRNVRAVMKRVVEDTTAIDVQVGLLYEEGVRKAQSSDSSKRTFSVYSSSRQQGRYAPSYTPSAPMDTNLLSNIQKLFSERIDVFSPVEFNKVSVLTGIIKISLKTLLECVRLRTFGRFGLQQVQVDCHFLQLYLWRFVADEELVHLLLDEVVASAALRCPDPVPMEPSVVEVICERG
